The nature of the assay: qHTS Assay to Find Inhibitors of Chronic Active B-Cell Receptor Signaling. As to conditions: ABC-DLBCL IkBa-CBG/CBR reporter, luminescence ratio (green luciferase fused to IkBa over red control in TMD8 lymphoma cells), 4 h. In a few lines:
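TMD8 human ABC-DLBCL cells with doxycycline-inducible IκBα–green luciferase fusion and unfused red luciferase, in 0.5% FBS medium; compounds up to 46 uM, 4 h at 37C. Green/red luminescence ratio, filter-overlap corrected, fitted to concentration-response curves.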
For orientation: qHTS replaces the single test concentration by a dilution series.

Where [1] appears, read: measured here: CBR red luminescence, cell number.
Where [2] appears, read: measured here: IkBa-CBG green luminescence.

The list shows a part of the results. Shown are side measurements of this screen, not its main read-out; they come without a call. Compounds called inactive in the main read-out are mostly missing here. Potencies come from curve fits of mixed quality, noted in brackets.

For `Cc1nc(SCc2nc3c(F)cccc3[nH]2)c2oc3ccccc3c2n1`, the AC50 under setting [1] was 0.00411 µM [rising, full curve, poor fit].

As for `Cn1c(=O)c2c(nc(Oc3ccccc3Br)n2C)n(C)c1=O`, under setting [1], the AC50 was 7.08 µM [falling, partial curve, poor fit].

For `Cn1c(=NC(=O)COc2ccccc2)sc2cc(F)cc(F)c21`, the AC50 under setting [1] is 0.708 µM [rising, full curve, poor fit].

On to `Cc1onc(-c2ccccc2)c1C(=O)N/N=C/c1ccccc1OC(C)C`, for which the AC50 under setting [1] was 35.5 µM [falling, single point].

`CCN1CCN(c2nc(N)c([N+](=O)[O-])c(Nc3ccc(C)cc3)n2)CC1`: the concentration at half-maximal activity (AC50) under setting [1] was 3.66 µM [rising, full curve, poor fit].

For `O=C(N/N=C/c1ccc[nH]1)c1ccccc1O`, the AC50 under setting [1] was 3.16 µM [falling, full curve, poor fit].

As to `O=S(=O)(NCC(c1ccccc1)N1CCNCC1)c1ccc(Cl)cc1` (stereo not drawn), the AC50 under setting [1] is 11.2 µM [falling, partial curve].

Consider `O=C(c1cc2cc(F)ccc2[nH]1)N1CCN(Cc2ccc3c(c2)OCO3)CC1`, for which the AC50 under setting [1] was 1.26 µM [falling, full curve, poor fit].

As for `CCN(CC)CCCn1c2c(c(SCC(=O)Nc3ccc(C)c(F)c3)nc1=O)CCC2`, the AC50 under setting [1] is 16.4 µM [falling, single point].

Turning to `O=C(NNS(=O)(=O)c1ccccc1[N+](=O)[O-])c1cc2ccccc2cc1O`, the concentration at half-maximal activity (AC50) under setting [1] is 8.91 µM [falling, single point].

On to `N#Cc1ccccc1S(=O)(=O)N1CCN(CC(O)CN2CCOCC2)CC1` (stereo not drawn), for which, under setting [1], the AC50 is 18.4 µM [rising, partial curve, poor fit].

With `CC(C)(C)c1nnc(N/N=C/c2ccccc2)n(N)c1=O`, the AC50 under setting [1] was 25.9 µM [rising, single point].

`CC(C)(C)c1ccc(S(=O)(=O)/N=C2\C=C(NS(=O)(=O)c3ccccc3)C(=O)c3ccccc32)cc1`: under setting [1], the AC50 is 17.8 µM [falling, single point].

Take `O=c1cc(-c2ccccc2)[nH]c2cc(F)ccc12`: the AC50 reads like this: under setting [1], 20.6 µM [rising, partial curve]; under setting [2], 29.1 µM [falling, single point].

Take `CCOC(=O)c1c(-c2ccc(C)cc2)csc1/N=C(\C)C1=C(O)c2ccccc2C1=O`: the AC50 under setting [1] was 6.31 µM [rising, single point].

Consider `Cc1cc(N/N=C2/CCCc3ccccc32)nc2ccccc12`, for which the AC50 under setting [1] is 11.2 µM [rising, partial curve] and the AC50 under setting [2] is 31.6 µM [falling, single point].

With `CCc1ccc(NC(=O)N(Cc2cccnc2)Cc2ccco2)cc1`, under setting [1], the AC50 is 29.1 µM [rising, single point].

Regarding `Cc1ccc(Sc2ccc(NC(=O)CCl)cc2)c(C)c1`, the AC50 is, setting by setting: under setting [1], 23.1 µM [falling, single point]; under setting [2], 20.6 µM [falling, single point].

For the molecule `O=C(Nc1ccccc1OC(F)F)c1cccc(S(=O)(=O)N2CCCC2)c1`, the AC50 under setting [1] is 25.1 µM [falling, single point].

For the molecule `Cc1ccc(OCCOc2cccc(/C=N/NC(N)=O)c2)cc1`, the AC50 under setting [1] was 0.447 µM [rising, full curve, poor fit].

As for `CCc1ccc(/C=C2\SC(=S)N(CCCC(=O)Nc3ccc(C(=O)O)cc3)C2=O)cc1`, under setting [1], the AC50 is 0.891 µM [falling, partial curve, poor fit].

On to `CCOC(=O)C1=C(C)N(C)C(C)=C(C(=O)OCC)C1c1ccccn1`, for which the AC50 under setting [1] is 23.1 µM [rising, single point].

Regarding `NNC(=O)CNC(=O)c1ccccc1F`, the AC50 under setting [1] was 25.9 µM [falling, single point].

Consider `CCN=C(NC#N)SCc1c(F)cccc1Cl`, for which the AC50 under setting [1] is 29.1 µM [rising, single point].

Take `COc1ccc2c(c1OC)C(=O)N1C2SC(C)(C)[C@H]1C(=O)NC(C)C` (stereo partly drawn): the AC50 under setting [1] was 17.8 µM [rising, single point].

On to `COC(=O)c1ccc(C2NC(=S)N(c3ccccc3)C(C)=C2C(=O)Nc2ccccc2OC)cc1` (stereo not drawn), for which, under setting [1], the AC50 was 6.51 µM [falling, partial curve, poor fit].

As for `Cc1ccc(S(=O)(=O)N(C)C)cc1-n1c(SCC(=O)Nc2ccccc2)nc2ccccc2c1=O`, under setting [1], the concentration at half-maximal activity (AC50) is 0.731 µM [rising, full curve, poor fit].

Take `Cc1cccc(C)c1NC(=O)C(NC=O)c1ccc(Cl)cc1` (stereo not drawn): the AC50 under setting [1] is 29.1 µM [falling, single point].

With `O=c1oc(-c2cccnc2)nc2ccccc12`, the AC50 under setting [1] is 11.2 µM [falling, partial curve, poor fit].

Turning to `COc1cccc(-c2nc(CS(=O)(=O)CC(=O)NC3CCCc4ccccc43)c(C)o2)c1` (stereo not drawn), under setting [1], the AC50 is 14.6 µM [rising, single point].

`O=C(NNC(=O)c1cc2ccccc2oc1=O)c1ccccc1`: under setting [1], the AC50 is 2.24 µM [falling, full curve, poor fit].

Take `COc1ccccc1NCC(=O)N/N=C/c1c(O)ccc2ccccc12`: the AC50 under setting [1] was 20 µM [falling, single point].

Regarding `COC(=O)c1ccc(/C=N/NC(=O)c2cccc(F)c2)cc1`, under setting [1], the AC50 was 23.1 µM [falling, single point].

Turning to `c1ccc(CCNc2ncnc3c2cnn3-c2ccccc2)cc1`, the AC50 under setting [1] is 16.4 µM [falling, single point].

Turning to `COC(=O)CCC(=O)CN`, the AC50 under setting [1] was 14.6 µM [rising, partial curve, poor fit].

As for `COC(=O)c1ccc2nc(NC(=O)COC(=O)CSc3nc(C)cc(C)n3)sc2c1`, the AC50 under setting [1] was 4.11 µM [rising, partial curve].

As to `CCC1CCC/C1=N\NC(=O)c1ccoc1C` (stereo not drawn), the AC50 under setting [1] is 3.98 µM [falling, partial curve].

With `O=c1c2ccccc2nc(N/N=C/c2c(O)ccc3ccccc23)n1O`, under setting [1], the AC50 is 2.91 µM [falling, full curve].

With `Cc1ccc(CNC(=O)C(Cc2ccccc2)NS(=O)(=O)c2ccc(Br)s2)cc1` (stereo not drawn), the AC50 under setting [1] was 29.1 µM [falling, single point].

On to `CC1Sc2ccc(C(=O)OCc3ccccc3Cl)cc2NC1=O` (stereo not drawn), for which the AC50 under setting [1] was 0.13 µM [rising, full curve, poor fit].

On to `Cc1nn(Cc2ccccc2)c2c1C(c1ccccc1)C(C#N)=C(N)O2` (stereo not drawn), for which the AC50 was 11.6 µM [falling, partial curve] under setting [1] and 25.9 µM [falling, partial curve, poor fit] under setting [2].

In the case of `CC(C)C[C@H]1CN=C(Nc2ccccc2)N1CC1CCC(C)CC1` (stereo partly drawn), under setting [1], the AC50 is 10 µM [falling, partial curve, poor fit].

For `CCOC(=O)c1nc2ccccc2c(C)c1C`, the AC50 under setting [1] was 12.6 µM [rising, partial curve, poor fit].

Take `O=C(/C=C/c1ccccc1)c1cc(Br)ccc(=O)c1O`: under setting [1], the AC50 is 5.17 µM [falling, full curve].

For the molecule `c1ccc(CNc2ccc3ccccc3n2)nc1`, under setting [1], the AC50 is 22.4 µM [falling, single point].

As for `COCCNc1nnc(SC(C)C(=O)Nc2ccc(-c3nc4ccc(C)cc4s3)cc2)s1` (stereo not drawn), the AC50 under setting [1] is 0.092 µM [rising, full curve, poor fit].

For `COc1ccc2sc(-c3ccccc3OC)c(-c3ccc(OCCN(C)C)cc3)c2c1`, the half-maximal activity concentration (AC50) under setting [1] was 29.1 µM [falling, single point].

Take `CCCCN(CCCC)C(=S)NC(=O)c1ccccc1Cl`: the AC50 under setting [1] was 1.84 µM [rising, partial curve, poor fit].

With `COc1ccc(C(=O)C(CCC(CNC(C)(C)C)C(=O)c2ccc(OC)cc2)CNC(C)(C)C)cc1` (stereo not drawn), the AC50 under setting [1] is 1.3 µM [falling, full curve].

For `CC(C)(C)c1ccc(C(=O)CSc2ncn[nH]2)cc1`, the AC50 under setting [1] was 29.1 µM [falling, single point].

As for `O=C(/C=C/c1ccc(Cl)cc1Cl)NCCSCc1ccccc1`, the AC50 under setting [1] is 29.1 µM [falling, single point].

For `CC(=O)CC1(OC(C)=O)C(=O)N(C)c2ccccc21` (stereo not drawn), the AC50 under setting [1] is 11.2 µM [falling, partial curve, poor fit].

With `O=C(Nc1ncccc1O)c1ccc(Oc2ccccc2)cc1`, the AC50 under setting [1] was 3.98 µM [falling, full curve].

Consider `O=C(O)c1cccc(NS(=O)(=O)c2cccc3cccnc23)c1`, for which the AC50 under setting [1] was 6.51 µM [rising, partial curve, poor fit].

As for `O=C(Cc1ccccc1)NNC(=S)Nc1ccc(Cl)cc1`, the AC50 under setting [1] is 29.1 µM [rising, partial curve, poor fit].

With `Cc1cc(NC(=O)c2sc3ccccc3c2O)no1`, the AC50 under setting [1] is 6.31 µM [falling, partial curve].

On to `C=CC[C@@H](CC(=O)N(CCO)Cc1ccccc1)C(=O)N[C@H](COC(=O)[C@@H](CC=C)Cc1ccc(F)cc1)C(C)(C)C`, for which the AC50 under setting [1] was 25.9 µM [falling, single point].

Regarding `C=CCn1c(SC2CCOC2=O)nc2sc(C)c(C)c2c1=O` (stereo not drawn), the AC50 was 3.66 µM [rising, full curve, poor fit] under setting [1] and 25.9 µM [falling, partial curve, poor fit] under setting [2].

Take `COc1ccc(-c2ccc3c(c2)S(=O)(=O)c2cccc(C(=O)NCc4ccccc4Cl)c2C3=O)cc1OC`: the AC50 under setting [2] was 10.3 µM [falling, partial curve, poor fit].

As to `Cc1ccc(-n2c(Cc3cccc4ccccc34)n[nH]c2=S)c(C)c1`, under setting [1], the AC50 is 12.6 µM [rising, partial curve, poor fit].

Regarding `NS(=O)(=O)c1cccc(NC(=O)/C=C/c2cccs2)c1`, under setting [1], the AC50 is 14.1 µM [falling, partial curve].

For `COc1ccc2nc3oc(C(=O)N4CCC(C(N)=O)CC4)cc3cc2c1`, under setting [1], the AC50 was 1.78 µM [falling, full curve].

For the molecule `O=C(Nc1ncc2c(n1)-c1ccccc1CC2)c1ccc(F)cc1`, under setting [1], the AC50 was 15.8 µM [falling, partial curve, poor fit].

The term AC50 denotes the concentration at which the activity in the assay is half-maximal.

For the origin of these results see PubChem BioAssay AID493014 (National Center for Advancing Translational Sciences (NCATS), 2011).
